Laboratory results taken from PubChem BioAssay AID504467 (National Center for Advancing Translational Sciences (NCATS), 2011).
In all, about 330,000 compounds went through this assay and about 7,700 (2.3%) were called active. Inconclusive means that the source gave no clear call. Such entries were picked first, then a sample of the others. Calls come from the whole dose curve; as a rule, active = well fitted inhibition curve with a large enough effect; inconclusive = small, poorly fitted or top-dose-only effect, or effect the other way; inactive = flat fitted curve, though single readings scatter. Potencies beside an inconclusive call are fits to weak or partial responses and may not hold up.

assay: qHTS screen for small molecules that inhibit ELG1-dependent DNA repair in human embryonic kidney (HEK293T) cells expressing luciferase-tagged ELG1; details: HEK293T ELG1-luciferase reporter, luminescence, 16 h, DNA damage induced by 5-fluorouridine; series mostly up to 46.1 µM; note: nearly all actives have a fitted effect of over 55% in size
Procedure, shortened: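 Quantitative HTS, concentration-response format. 2,000 cells/well co-treated with 5-fluorouridine and compound, 16 hr in 5% CO2 at 37 °C; ONE-Glo luminescence read after 30 min.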
Potency is the fitted concentration of half-maximal effect.

Structure (SMILES) | Potency
CCSc1nnc(NC(=O)NC2CCCCC2)s1 | inconclusive: 29.1 µM [activator, single point]
Cc1cc(NC(=O)CSc2ncnc3c2cnn3-c2ccccc2)no1 | inconclusive: 32.6 µM [inhibitor, single point]
CCO[C@@H]1OC(C(=O)N2CCN(Cc3ccc4c(c3)OCO4)CC2)=C[C@H](C2CCCCC2)[C@H]1CCCO | inconclusive: 29.1 µM [inhibitor, single point]
O=C(c1cnn2c(C(F)(F)F)cc(-c3cccs3)nc12)N1CCOCC1 | inconclusive: 20.6 µM [inhibitor, single point]
O/N=C/c1cccn1-c1ccc(O)cc1 | inconclusive: 1.26 µM [inhibitor, single point]
COc1ccc2c(c1OC)C(=O)N(c1cccc(NC(C)=O)c1)C2 | inconclusive: 20.6 µM [activator, partial curve]
Cc1nc(C#N)c(N/N=C/c2c(F)cccc2Cl)o1 | inconclusive: 18.4 µM [activator, single point]
Cc1nn(-c2ccccc2)c(Cl)c1/C=N/NC(=O)c1ccc(CNc2ccccc2)o1 | inconclusive: 20.6 µM [inhibitor, single point]
Cc1ccnc(N/N=C/c2ccco2)n1 | inconclusive: 18.4 µM [activator, partial curve]
CC(C)c1ccccc1NC(=O)c1ccc2ncsc2c1 | inconclusive: 23.1 µM [activator, partial curve]
CNc1nc(-c2c(C)n(C)c3ccc(OC)cc23)cs1 | inactive
COc1ccc(S(=O)(=O)N2CCN(C)CC2c2ccccc2)cc1 (stereo not given) | inactive
Cc1cccc(NC(=O)CSc2nnc(CCCCCNC(=O)OC(C)(C)C)o2)c1C | inconclusive: 20.6 µM [inhibitor, single point]
CC1(C)C2CCC1(CS(=O)(=O)NCc1ccc(C(F)(F)F)cc1)C(=O)C2 (stereo not given) | inconclusive: 29.1 µM [inhibitor, partial curve, poor fit]
Cc1cc(NC(=O)CCC2CCCC2)no1 | inconclusive: 25.9 µM [activator, single point]
CCCOc1ccc(OCC(=O)c2[nH]c(C)c(C(C)=O)c2C)cc1 | inactive
CC(C)C(=O)N1CCN(c2ccc(NC(=O)COc3ccccc3[N+](=O)[O-])cc2)CC1 | active: 9.2 µM
COc1ccc(S(=O)(=O)N2CCC(C(=O)NCCC(=O)Nc3ccc(Cl)cc3)CC2)cc1 | inactive
CCN(CC)C(=O)C1CCCN(c2ccccc2[N+](=O)[O-])C1 (stereo not given) | inactive
COc1ccc(Cl)cc1NC(=O)CN(C)C(=O)c1cc(-c2cccs2)nn1-c1ccccc1 | inactive

An excerpt of the results above, for reference:
Structure (SMILES) | Potency
Cc1cc(NC(=O)CCC2CCCC2)no1 | inconclusive: 25.9 µM [activator, single point]
CCCOc1ccc(OCC(=O)c2[nH]c(C)c(C(C)=O)c2C)cc1 | inactive
